Measured values reported in doi:10.1101/2025.05.30.657000.
Like-named read-outs stand apart in the source and are kept apart here. No constants are given. Whether binding was seen depends on the method and setting. In cells and extracts the contact can be indirect. These calls come from enrichment with a bait or labelling near it, and not all partners need be listed.

Amino acid sequences for entries named in this document (tags omitted). A change or cut given only in a name is not applied to a line headed by its entry.
UniProt Q07812: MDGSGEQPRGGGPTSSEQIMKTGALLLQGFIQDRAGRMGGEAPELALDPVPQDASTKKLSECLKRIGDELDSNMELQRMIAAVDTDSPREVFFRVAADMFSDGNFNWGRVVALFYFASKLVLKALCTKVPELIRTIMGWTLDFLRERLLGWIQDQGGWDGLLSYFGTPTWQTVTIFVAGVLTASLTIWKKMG
UniProt Q07817: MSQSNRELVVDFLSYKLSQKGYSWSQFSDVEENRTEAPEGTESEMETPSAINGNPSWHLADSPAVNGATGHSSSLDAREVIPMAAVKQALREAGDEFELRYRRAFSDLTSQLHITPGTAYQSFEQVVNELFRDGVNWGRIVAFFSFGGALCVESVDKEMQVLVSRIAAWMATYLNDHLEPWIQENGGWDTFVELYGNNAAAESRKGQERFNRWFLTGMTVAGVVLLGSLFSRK
UniProt P10415: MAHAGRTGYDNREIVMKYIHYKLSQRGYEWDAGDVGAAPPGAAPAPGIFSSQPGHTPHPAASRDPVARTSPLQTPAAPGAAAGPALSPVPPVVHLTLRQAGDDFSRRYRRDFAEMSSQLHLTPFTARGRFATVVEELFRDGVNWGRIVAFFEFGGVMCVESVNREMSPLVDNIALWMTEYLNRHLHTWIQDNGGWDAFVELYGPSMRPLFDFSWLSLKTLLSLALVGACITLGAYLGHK

Experiments:
Experiment in all cases: proximity labelling
BirA*-BaxS184V = BirA*-BaxS184V (UniProt Q07812)
BirA*-Bcl-XL [1] = target: BirA*-Bcl-XL (UniProt Q07817)
BirA*-Bcl-2 = BirA*-Bcl-2 (UniProt P10415)
BirA*-Bcl-XL [2] = target: BirA*-Bcl-XL (UniProt Q07817); remark: listed apart in the source
BirA*-Bcl-XL, Q07817 [3] = conditions: remark: other sources report otherwise
BirA*-Bcl-XL, Q07817 [4] = conditions: remark: other sources report otherwise; remark: listed apart in the source

Measured: binding

B1: YKT6 (protein, UniProt O15498 1-198)
chain: MKLYSLSVLYKGEAKVVLLKAAYDVSSFSFFQRSSVQEFMTFTSQLIVERSSKGTRASVKEQDYLCHVYVRNDSLAGVVIADNEYPSRVAFTLLEKVLDEFSKQVDRIDWPVGSPATIHYPALDGHLSRYQNPREADPMTKVQAELDETKIILHNTMESLLERGEKLDDLVSKSEVLGTQSKAFYKTARKQNSCCAIM
binds: BirA*-BaxS184V | BirA*-Bcl-XL [1] | BirA*-Bcl-2 | BirA*-Bcl-XL [2]

B2: MAVS, Q7Z434 1-540 (protein)
chain: MPFAEDKTYKYICRNFSNFCNVDVVEILPYLPCLTARDQDRLRATCTLSGNRDTLWHLFNTLQRRPGWVEYFIAALRGCELVDLADEVASVYQSYQPRTSDRPPDPLEPPSLPAERPGPPTPAAAHSIPYNSCREKEPSYPMPVQETQAPESPGENSEQALQTLSPRAIPRNPDGGPLESSSDLAALSPLTSSGHQEQDTELGSTHTAGATSSLTPSRGPVSPSVSFQPLARSTPRASRLPGPTGSVVSTGTSFSSSSPGLASAGAAEGKQGAESDQAEPIICSSGAEAPANSLPSKVPTTLMPVNTVALKVPANPASVSTVPSKLPTSSKPPGAVPSNALTNPAPSKLPINSTRAGMVPSKVPTSMVLTKVSASTVPTDGSSRNEETPAAPTPAGATGGSSAWLDSSSENRGLGSELSKPGVLASQVDSPFSGCFEDLAISASTSLGMGPCHGPEENEYKSEGTFGIHVAENPSIQLLEGNPGPPADPDGGPRPQADRKFQEREVPCHRPSPGALWLQVAVTGVLVVTLLVVLYRRRLH
binds: BirA*-Bcl-XL, Q07817 [3] | BirA*-Bcl-XL, Q07817 [4]
